These results are taken from article PMC6062831 (ACS Central Science, 2018).

The chains behind the UniProt entries cited, without tags or fusion partners. Where a name states a change or a piece, a line headed by the entry shows the natural chain unless it says otherwise.
UniProt P05804: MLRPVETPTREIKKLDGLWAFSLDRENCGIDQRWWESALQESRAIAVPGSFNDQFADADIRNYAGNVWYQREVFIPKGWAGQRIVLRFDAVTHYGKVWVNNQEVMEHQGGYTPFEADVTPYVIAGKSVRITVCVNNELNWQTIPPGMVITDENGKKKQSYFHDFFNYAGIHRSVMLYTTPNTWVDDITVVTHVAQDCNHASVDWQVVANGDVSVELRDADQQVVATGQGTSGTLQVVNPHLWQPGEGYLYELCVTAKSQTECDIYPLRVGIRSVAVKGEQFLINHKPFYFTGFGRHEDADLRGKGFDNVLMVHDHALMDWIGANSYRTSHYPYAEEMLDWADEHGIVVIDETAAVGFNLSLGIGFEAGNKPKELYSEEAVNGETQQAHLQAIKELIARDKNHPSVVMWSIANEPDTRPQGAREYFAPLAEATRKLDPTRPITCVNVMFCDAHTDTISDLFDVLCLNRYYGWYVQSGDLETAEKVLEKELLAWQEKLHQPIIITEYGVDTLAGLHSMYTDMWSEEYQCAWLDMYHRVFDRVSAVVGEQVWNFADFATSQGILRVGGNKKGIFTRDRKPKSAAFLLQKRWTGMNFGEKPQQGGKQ

In this experiment the target is EcGUS (Escherichia coli, UniProt P05804). Description: biochemical.

For orientation: IC50 means the concentration needed to halve the response being measured. High values mean a need for much substance, low ones inhibition by little substance.

Regarding `Clc1ccc2c(c1)C(N1CCNCC1)=Nc1ccccc1O2` [amoxapine], the IC50 was determined as 530 ± 10 nM.
